The assay in a line: IkB Signaling. As to conditions: ABC-DLBCL IkBa-CBG/CBR dual luciferase ratio (green luciferase fused to IkBa over red control in OCI-Ly3 lymphoma cells), 4 h. The gist of the method:
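Curves were fitted separately to fusion (green), unfused (red) and ratio luminescence, then classed by r2, magnitude and activity. Cells: OCI-Ly3, 4 h compound plus doxycycline at 37C; 10 uM MG-132 defined full response.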

[1] abbreviates: measured here: control luc red channel unless noted.
Where [2] appears, read: measured here: IkB-luc green channel.
Where [3] appears, read: measured here: control luc red channel.

“And” between values parts separate entries of the source, which are not always exact repeats. Equal entries are not always repeated. The list shows a part of the results. The main result of the screen is listed elsewhere. These columns were measured beside it and carry no call. Most of these compounds were active or inconclusive in the main read-out, so they are no random draw. Words in brackets tell the shape of the fitted curve; partial curves, single points and poor fits give uncertain potencies.

This note sets out measurements from PubChem BioAssay AID445 (National Center for Advancing Translational Sciences (NCATS), 2006).

By AC50 is commonly meant the midpoint of the concentration-response curve, whichever way the signal moves. For `COc1ccc(C2Nc3ccccc3-n3c(-c4ccccc4)c4c(=O)n(C)c(=O)n(C)c4c32)cc1` (stereo not given), the AC50 under setting [1] was 10 µM [falling, partial curve].

For the molecule `COc1ccccc1-c1noc(-c2ccc(NCc3ccccc3)c([N+](=O)[O-])c2)n1`, the AC50 under setting [1] is 0.501 µM [rising, full curve].

With `COc1ccc(N2Cc3cccc(C(=O)Nc4ccc(C)cc4)c3C2=O)cc1`, the AC50 under setting [1] is 39.8 µM [rising, single point]. For the molecule `Cc1ccc(O)c(N=CC2=C(O)c3ccccc3C2=O)c1`, the AC50 is, setting by setting: under setting [2], 3.16 µM [rising, partial curve]; under setting [3], 25.1 µM [falling, single point]. Regarding `CCC(=O)N1CCc2cc(S(=O)(=O)N3CCN(c4ccccc4F)CC3)ccc21`, the AC50 under setting [1] was 25.1 µM [falling, single point]. Turning to `COc1cc(OC)c(NC(=O)Cn2nc(C)n3cccc3c2=O)cc1Cl`, the AC50 under setting [1] was 6.31 µM [falling, partial curve]. Still for that read-out and setting: with `COc1ccccc1OCC(=O)Nc1ccc(S(=O)(=O)N2CCCCCC2)cc1` the figure was 12.6 µM [falling, partial curve]; with `COc1ccc(OC)c(NC(=O)CN2CCC(C(=O)c3ccc(C)cc3)CC2)c1`, 20 µM [falling, partial curve]; with `CCN(CC)S(=O)(=O)c1ccc2c(c1)c(=O)c(C(=O)NCCc1ccc(OC)c(OC)c1)cn2C`, 0.158 µM [rising, partial curve].

As for `O=C(Nc1cnc2ccccn2c1=O)c1ccc(F)cc1`, under setting [1], the half-maximal activity concentration (AC50) is 15.8 µM [falling, partial curve]. On to `CCOC(=O)c1nnn(-c2nonc2N)c1COc1cc(C)c(Cl)c(C)c1`, for which the concentration at half-maximal activity (AC50) under setting [1] was 15.8 µM [falling, partial curve]. With `CCCCc1nc2ccccc2c(=O)n1NC(=O)c1c(O)c2c(n(CC(C)C)c1=O)CCCC2`, under setting [1], the AC50 is 6.31 µM [falling, partial curve]. For the molecule `Cc1coc2cc3oc(=O)c(CCC(=O)N4CCCCC4)c(C)c3cc12`, the AC50 under setting [1] is 39.8 µM [falling, single point]. As for `C[C@@]12C(=O)OC(=O)[C@@]1(C)[C@H]1CC[C@@H]2O1`, the AC50 is 31.6 µM [rising, partial curve] and 3.98 µM [rising, partial curve] under setting [2]; 20 µM [rising, partial curve] and 1.58 µM [rising, partial curve] under setting [3].

Consider `c1coc(CNc2nc3nonc3nc2NCc2ccco2)c1`, for which the AC50 under setting [1] is 25.1 µM [falling, partial curve].

For the molecule `COc1ccc(CNC2CC(=O)N(C)C2=O)cc1` (stereo not given), under setting [1], the AC50 was 39.8 µM [rising, single point]. For `Cc1cn2c(=O)cc(COC(=O)c3cccc(NC(=O)COc4ccccc4)c3)nc2s1`, the AC50 under setting [1] was 0.126 µM [falling, full curve]. In the case of `Cc1cc(C)n2nc(-c3ccc(Cl)cc3)nc2n1`, under setting [1], the AC50 was 6.31 µM [rising, single point]. Same read-out and setting: with `Cc1cccc(N2CCN(c3nc4ccc(C(=O)c5ccccc5)cc4n4cnnc34)CC2C)c1` (stereo not given) the figure was 20 µM [falling, partial curve, poor fit]. Consider `O=C1c2c(O)ccc(O)c2C(=O)c2c(NCCNCCO)ccc(NCCNCCO)c21`, for which the AC50 runs as follows: under setting [2], 5.01 µM [falling, partial curve]; under setting [3], 10 µM [falling, partial curve] and 3.98 µM [falling, partial curve]. Consider `Cc1ccc2c(CC(=O)N3CCN(c4cccc(Cl)c4)CC3)coc2c1C`, for which the AC50 under setting [1] was 25.1 µM [falling, partial curve].

Turning to `CCc1nnc(NC(=O)CCC(=O)Nc2ccccc2)s1`, the AC50 was 31.6 µM [rising, single point] under setting [2] and 20 µM [rising, partial curve] under setting [3].

`Cc1cc(N2CCN(S(=O)(=O)c3ccccc3)CC2)c2ccccc2n1`: the AC50 under setting [1] is 7.94 µM [falling, partial curve]. For the molecule `COC(=O)CN1C(=O)CSc2ccc(S(=O)(=O)Nc3ccccc3)cc21`, under setting [1], the AC50 was 39.8 µM [falling, single point]. In the case of `CN1CCN(S(=O)(=O)c2ccc(SCCOc3ccccc3)nc2)CC1`, under setting [1], the AC50 is 25.1 µM [falling, single point].

Turning to `COC(=O)c1ccc(Nc2nc(-c3ccc(C)cc3)nc3ccccc23)cc1`, under setting [1], the AC50 was 20 µM [falling, partial curve]. With `COc1ccc(CNc2nc3c(c(=O)n(Cc4ccc(F)cc4)c(=O)n3C)n2C)cc1`, under setting [1], the AC50 was 6.31 µM [falling, partial curve].

As for `CC(=O)N1CCc2c(sc3c2c(=O)n(Cc2ccccc2)c(=O)n3Cc2cccc(Cl)c2)C1`, under setting [1], the AC50 is 31.6 µM [falling, single point].

Consider `Cc1ccccc1Cn1cnc2c(oc3ccccc32)c1=O`, for which the AC50 under setting [1] is 0.501 µM [rising, full curve, poor fit]. Turning to `CC1=Nc2cc(C(=O)NC3CCC(C)CC3)ccc2Sc2c(C)ccc(C)c21` (stereo not given), under setting [1], the AC50 was 1 µM [rising, full curve]. For the molecule `COc1cc(C(=O)N2CCc3c([nH]c4ccccc34)C2c2ccc(F)cc2)cc(OC)c1OC` (stereo not given), the AC50 under setting [1] is 12.6 µM [falling, partial curve]. As for `O=C(Nc1ccc(NC(=O)C2CC2)nc1)c1ccccn1`, the half-maximal activity concentration (AC50) under setting [1] is 10 µM [falling, partial curve].

For the molecule `Cc1ccc(-n2nc(C(=O)NCc3ccc(F)cc3Cl)c3c4ccccc4n(C)c3c2=O)cc1`, under setting [1], the AC50 is 0.251 µM [rising, full curve, poor fit]. Still for that read-out and setting: with `CCc1ccc(-c2nc3cc(NC(=O)c4cc5ccccc5cc4OC)ccc3o2)cc1` the figure was 3.98 µM [falling, partial curve]; with `COc1ccc(Br)c(C(=O)Nc2cc3c(cc2N2CCCCC2)n(C)c(=O)c(=O)n3C)c1`, 25.1 µM [falling, single point]; with `COc1cc(C2CC(=O)N(Cc3ccc(F)cc3)c3ccccc3S2)cc(OC)c1OC` (stereo not given), 0.251 µM [falling, full curve, poor fit]. Take `COC(=O)c1ccccc1NC(=O)c1nc(S(=O)(=O)Cc2cccc(C)c2)ncc1Cl`: under setting [1], the AC50 is 7.94 µM [falling, partial curve]. For the molecule `Cc1cccc(NC(=O)c2c(C)cc(C)nc2SCC(=O)Nc2c(C)cc(C)cc2C)c1`, the AC50 under setting [1] is 10 µM [falling, partial curve]. As to `OC(CN(c1ccccc1)c1ccccc1)Cn1cnc2ccccc21` (stereo not given), under setting [1], the AC50 was 12.6 µM [falling, partial curve]. On the same count and under the same terms, with `Cn1c(=O)oc2cc(S(=O)(=O)N3CCC(C(=O)NCc4ccc(F)cc4)CC3)ccc21` the figure was 3.98 µM [falling, partial curve]; with `CCNC(=O)NC(=O)COC(=O)CCCSc1nc2ccccc2[nH]1`, 7.94 µM [falling, partial curve]; with `O=C(Nc1nnc(S(=O)(=O)N2CCCC2)s1)c1ccccc1Br`, 15.8 µM [falling, single point].

`CCOC(=O)c1ccc(NC(=O)CSc2nnc(CNC(=O)c3ccc(OC)cc3)n2CC)cc1`: the concentration at half-maximal activity (AC50) under setting [1] is 39.8 µM [falling, single point]. `COc1ccc(NC(=O)CC2C(=O)N(c3ccc(C)cc3)C(=O)N2Cc2ccc3c(c2)OCO3)cc1` (stereo not given): the AC50 under setting [1] is 7.94 µM [falling, single point]. Take `COc1ccc(N2CCN(S(=O)(=O)c3ccc4c(c3)CCCN4C(C)=O)CC2)cc1`: the AC50 under setting [1] was 15.8 µM [falling, partial curve, poor fit].

As to `CCC(C)n1c(SCc2c(F)cccc2Cl)nc2ccsc2c1=O` (stereo not given), under setting [1], the AC50 is 25.1 µM [falling, single point]. Regarding `COc1cc(N2C(=O)CSC23C(=O)N(Cc2ccc(C)cc2)c2ccccc23)cc(OC)c1OC` (stereo not given), the AC50 under setting [1] was 25.1 µM [falling, single point]. For `Cc1ccc(C)c(CN2C(=O)c3ccccc3S(=O)c3ccc(C(=O)N4CCN(c5ccccc5F)CC4)cc32)c1` (stereo not given), under setting [1], the AC50 is 20 µM [falling, partial curve]. Take `CC(C)(C)OC(=O)N1CCC(c2c(C(=O)NCCCN3CCc4ccccc4C3)cnn2-c2ccccc2)CC1`: under setting [1], the AC50 was 20 µM [falling, partial curve].

With `COc1ccc(-c2c(C)c3cc(OC(=O)N4CCOCC4)ccc3oc2=O)cc1`, the AC50 under setting [1] is 6.31 µM [falling, single point]. `O=C(Nc1nc2ccc(Cl)cc2s1)c1ccc(Br)o1`: the AC50 under setting [1] was 1.58 µM [falling, full curve].

Consider `O=C(Cn1cc(SCc2ccccc2)c2ccccc21)N1CCCCC1`, for which the half-maximal activity concentration (AC50) under setting [1] is 25.1 µM [falling, single point]. Turning to `CCc1ccc(CNC(=O)CN(c2ccc(C)cc2)S(=O)(=O)N(C)C)cc1`, under setting [1], the concentration at half-maximal activity (AC50) was 12.6 µM [falling, single point].

In the case of `N#Cc1c(-n2ncnc2-c2ccc(Br)cc2)sc2c1CCCCC2`, the AC50 under setting [1] was 0.251 µM [falling, full curve].

As for `CSc1ccc(CNC(=O)C2CCN(c3nnc(-n4cccc4CNc4ccc(C)cc4)s3)CC2)cc1`, the AC50 under setting [1] was 0.0316 µM [falling, full curve, poor fit]. `CCOC(=O)c1c(NC(=O)CSc2n[nH]c(-c3ccco3)n2)sc(C)c1C`: the AC50 under setting [1] is 25.1 µM [falling, single point]. For `O=c1oc(-c2cccs2)nc2c1cnn2-c1ccccc1`, the AC50 under setting [1] was 7.94 µM [falling, full curve, poor fit]. On the same count and under the same terms, with `O=C(COc1ccc([N+](=O)[O-])cc1)NCC1(N2CCOCC2)CCCCC1` the figure was 1.26 µM [falling, partial curve].

Regarding `Cc1cnc(CNc2ncnc3ccc(-c4c(C)noc4C)cc23)cn1`, the AC50 under setting [1] is 5.01 µM [rising, partial curve] [measured here: IkB-luc green channel]. For the molecule `O=C(NCc1ccco1)C1CCCN(S(=O)(=O)c2cccc3nonc23)C1` (stereo not given), the AC50 is 15.8 µM [rising, partial curve] under setting [2] and 15.8 µM [falling, partial curve] under setting [3].
